System: anti-compound 2 sera, anti-compound 3 sera
Test: RIA of bupropion using 125I-labeled bupropion competitors with anti-compound 2 or anti-compound 3 sera
Type: binding
Settings: with either anti-compound 2 or anti-compound 3 sera; ethanol precipitation

Compound | sensitivity of RIA relative to the compound 10 (3H bupropion) assay system
CC(NC(C)(C)C)C(=O)c1ccc(OCC(=O)NCCc2ccc(O)c([125I])c2)c(Cl)c1 (stereo not drawn) [Compound 7, α-t-Butylamino-3-chloro-4-carbomethoxypropiophenone-^125 I-tyramine amide] | approximately equal
CC(NC(C)(C)C)C(=O)c1ccc(CCCOC(=O)CCC(=O)NCCc2ccc(O)c([125I])c2)c(Cl)c1 (stereo not drawn) [Compound 8, α-t-Butylamino-3-chloro-4-γ-hydroxypropylpropiophenone-hemisuccinate-^125 I-tyramine amide] | approximately equal
CC(NC(C)(C)C)C(=O)c1ccc(O)c([125I])c1 (stereo not drawn) [Compound 9, ^125 I-α-t-Butylamino-3-iodo-4-hydroxypropiophenone] | approximately ten times more sensitive

— patent publication US4347382A, “3^H Labeled compounds” (Burroughs Wellcome Co., priority 1980, dated 1982)
